Some of the results follow.
How the values were obtained:
Test in all cases: log2 fold change, soluble protein after heating vs DMSO (PISA); higher = thermal stabilisation; K562 lysate, 10 uM; active = over 0.2 and 3.5 SD of the protein, either way, in both replicates (recomputed)
vemurafenib = compound: CCCS(=O)(=O)Nc1ccc(F)c(C(=O)c2c[nH]c3ncc(-c4ccc(Cl)cc4)cc23)c1F [vemurafenib]
Outline: (§1)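 Thermal stability, expressed as log-two fold change relative to solvent controls, is given from duplicates. Crude K562 extract in PBS pH 7.4 with 1 mM MgCl2, at 1 mg/mL protein, was treated with 10 μM compound for 30 min and heated in aliquots for 3 min across 48°C-58°C. After pooling, adjustment to 0.5% NP-40 at 4°C and centrifugation at 21,000xg for 90 min, supernatant protein was measured by TMTpro 16plex LC-MS/MS with channel sums equalised.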

Protein sequences, listed by entry. Tags and fused reporters are not part of them. Lines headed by an entry give the natural chain unless they say otherwise; changes in a name come on top.
UniProt O43292: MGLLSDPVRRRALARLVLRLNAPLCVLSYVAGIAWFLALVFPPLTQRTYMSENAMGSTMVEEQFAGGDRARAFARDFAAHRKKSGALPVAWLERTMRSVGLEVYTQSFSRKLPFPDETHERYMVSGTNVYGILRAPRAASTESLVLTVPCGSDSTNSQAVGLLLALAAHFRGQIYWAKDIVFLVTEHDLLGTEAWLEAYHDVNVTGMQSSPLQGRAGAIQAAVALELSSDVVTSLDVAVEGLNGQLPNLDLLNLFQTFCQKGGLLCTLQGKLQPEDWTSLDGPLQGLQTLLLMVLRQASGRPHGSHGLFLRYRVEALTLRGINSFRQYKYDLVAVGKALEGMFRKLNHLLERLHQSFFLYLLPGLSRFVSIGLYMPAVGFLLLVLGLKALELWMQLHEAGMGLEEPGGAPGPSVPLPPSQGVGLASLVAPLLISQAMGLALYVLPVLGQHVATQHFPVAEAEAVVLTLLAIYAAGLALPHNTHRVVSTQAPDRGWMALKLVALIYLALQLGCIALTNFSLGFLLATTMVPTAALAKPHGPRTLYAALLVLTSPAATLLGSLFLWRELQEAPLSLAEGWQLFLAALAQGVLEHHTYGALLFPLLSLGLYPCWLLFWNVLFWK
UniProt Q08379: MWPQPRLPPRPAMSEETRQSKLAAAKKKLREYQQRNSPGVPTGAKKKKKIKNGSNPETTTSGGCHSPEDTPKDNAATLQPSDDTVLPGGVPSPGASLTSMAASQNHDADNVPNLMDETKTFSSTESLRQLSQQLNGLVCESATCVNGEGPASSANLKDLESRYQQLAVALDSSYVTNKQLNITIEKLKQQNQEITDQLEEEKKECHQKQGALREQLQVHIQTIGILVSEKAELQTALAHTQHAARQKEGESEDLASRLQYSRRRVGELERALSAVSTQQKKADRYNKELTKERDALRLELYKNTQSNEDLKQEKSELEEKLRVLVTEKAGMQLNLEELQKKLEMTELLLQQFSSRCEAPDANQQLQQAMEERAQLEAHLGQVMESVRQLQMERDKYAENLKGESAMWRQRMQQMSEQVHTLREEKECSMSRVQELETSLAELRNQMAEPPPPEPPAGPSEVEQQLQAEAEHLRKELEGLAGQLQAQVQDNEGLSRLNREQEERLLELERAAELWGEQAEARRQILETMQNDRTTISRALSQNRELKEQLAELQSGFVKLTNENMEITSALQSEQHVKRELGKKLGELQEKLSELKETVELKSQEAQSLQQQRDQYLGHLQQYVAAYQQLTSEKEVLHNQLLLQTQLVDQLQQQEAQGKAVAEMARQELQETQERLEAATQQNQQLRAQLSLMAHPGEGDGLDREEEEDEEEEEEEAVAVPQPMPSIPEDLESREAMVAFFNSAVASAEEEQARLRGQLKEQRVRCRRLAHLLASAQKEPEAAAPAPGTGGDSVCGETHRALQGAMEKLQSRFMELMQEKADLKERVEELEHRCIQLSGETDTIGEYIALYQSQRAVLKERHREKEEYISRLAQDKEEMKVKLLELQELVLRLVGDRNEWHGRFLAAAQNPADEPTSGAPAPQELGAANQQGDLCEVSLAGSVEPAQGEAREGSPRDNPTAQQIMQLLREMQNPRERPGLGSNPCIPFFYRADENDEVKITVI
UniProt Q9Y223: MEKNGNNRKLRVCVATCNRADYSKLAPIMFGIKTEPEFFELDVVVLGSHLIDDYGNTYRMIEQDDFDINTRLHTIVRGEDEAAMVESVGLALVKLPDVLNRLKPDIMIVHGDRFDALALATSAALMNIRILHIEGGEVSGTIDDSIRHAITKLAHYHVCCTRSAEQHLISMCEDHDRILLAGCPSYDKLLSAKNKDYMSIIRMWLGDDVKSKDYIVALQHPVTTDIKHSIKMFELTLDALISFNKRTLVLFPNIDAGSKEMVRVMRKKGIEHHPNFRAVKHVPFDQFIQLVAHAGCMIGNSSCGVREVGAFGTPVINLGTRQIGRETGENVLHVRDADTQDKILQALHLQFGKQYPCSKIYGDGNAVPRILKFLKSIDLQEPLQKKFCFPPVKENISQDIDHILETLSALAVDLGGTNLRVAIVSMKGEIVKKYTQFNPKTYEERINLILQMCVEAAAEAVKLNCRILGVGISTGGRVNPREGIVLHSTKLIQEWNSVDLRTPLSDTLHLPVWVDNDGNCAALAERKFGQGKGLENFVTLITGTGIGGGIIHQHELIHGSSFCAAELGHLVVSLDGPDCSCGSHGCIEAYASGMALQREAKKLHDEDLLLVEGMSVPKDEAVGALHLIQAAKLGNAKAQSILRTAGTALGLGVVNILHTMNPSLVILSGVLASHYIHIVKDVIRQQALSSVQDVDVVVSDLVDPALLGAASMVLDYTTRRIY
UniProt Q9Y692: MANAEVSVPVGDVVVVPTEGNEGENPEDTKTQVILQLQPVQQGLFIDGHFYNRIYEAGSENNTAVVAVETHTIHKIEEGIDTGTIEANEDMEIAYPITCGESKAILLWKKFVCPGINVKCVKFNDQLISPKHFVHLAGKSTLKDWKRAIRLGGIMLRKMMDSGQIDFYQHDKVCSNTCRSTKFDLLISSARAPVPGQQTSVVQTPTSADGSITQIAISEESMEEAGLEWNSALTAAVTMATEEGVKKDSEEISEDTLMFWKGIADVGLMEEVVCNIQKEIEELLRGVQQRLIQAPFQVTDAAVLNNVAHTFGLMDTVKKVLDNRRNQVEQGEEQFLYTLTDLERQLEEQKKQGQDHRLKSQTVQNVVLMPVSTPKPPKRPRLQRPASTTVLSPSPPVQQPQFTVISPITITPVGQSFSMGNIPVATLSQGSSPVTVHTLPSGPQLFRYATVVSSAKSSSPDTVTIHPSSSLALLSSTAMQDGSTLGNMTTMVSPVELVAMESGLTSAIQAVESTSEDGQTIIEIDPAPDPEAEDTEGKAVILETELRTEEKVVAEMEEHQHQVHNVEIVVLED
UniProt P62879, whole entry, looked up: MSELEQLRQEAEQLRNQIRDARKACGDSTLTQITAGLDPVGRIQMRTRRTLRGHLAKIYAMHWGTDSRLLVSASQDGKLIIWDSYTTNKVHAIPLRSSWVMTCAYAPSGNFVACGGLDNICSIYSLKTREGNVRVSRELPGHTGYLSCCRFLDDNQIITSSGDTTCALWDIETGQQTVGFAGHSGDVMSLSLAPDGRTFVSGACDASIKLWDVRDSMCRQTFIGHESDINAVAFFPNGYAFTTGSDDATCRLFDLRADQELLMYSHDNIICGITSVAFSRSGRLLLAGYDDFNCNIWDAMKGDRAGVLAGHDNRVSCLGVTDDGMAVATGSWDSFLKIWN
UniProt Q5VW38: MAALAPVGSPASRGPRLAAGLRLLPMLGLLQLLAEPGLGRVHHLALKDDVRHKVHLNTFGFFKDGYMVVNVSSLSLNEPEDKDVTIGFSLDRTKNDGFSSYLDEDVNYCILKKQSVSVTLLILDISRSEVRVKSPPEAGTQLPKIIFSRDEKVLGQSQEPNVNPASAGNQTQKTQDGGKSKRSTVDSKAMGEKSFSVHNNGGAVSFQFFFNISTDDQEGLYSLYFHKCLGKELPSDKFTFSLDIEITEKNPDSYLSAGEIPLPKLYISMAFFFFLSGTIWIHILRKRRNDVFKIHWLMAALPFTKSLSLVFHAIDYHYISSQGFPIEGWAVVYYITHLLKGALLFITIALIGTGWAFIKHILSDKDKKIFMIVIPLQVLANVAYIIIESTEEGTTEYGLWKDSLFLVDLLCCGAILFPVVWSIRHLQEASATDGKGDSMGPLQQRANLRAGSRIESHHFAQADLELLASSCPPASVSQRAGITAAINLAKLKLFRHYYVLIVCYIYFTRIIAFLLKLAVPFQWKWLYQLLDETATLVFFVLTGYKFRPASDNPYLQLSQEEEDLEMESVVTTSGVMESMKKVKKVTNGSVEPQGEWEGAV
UniProt P49448: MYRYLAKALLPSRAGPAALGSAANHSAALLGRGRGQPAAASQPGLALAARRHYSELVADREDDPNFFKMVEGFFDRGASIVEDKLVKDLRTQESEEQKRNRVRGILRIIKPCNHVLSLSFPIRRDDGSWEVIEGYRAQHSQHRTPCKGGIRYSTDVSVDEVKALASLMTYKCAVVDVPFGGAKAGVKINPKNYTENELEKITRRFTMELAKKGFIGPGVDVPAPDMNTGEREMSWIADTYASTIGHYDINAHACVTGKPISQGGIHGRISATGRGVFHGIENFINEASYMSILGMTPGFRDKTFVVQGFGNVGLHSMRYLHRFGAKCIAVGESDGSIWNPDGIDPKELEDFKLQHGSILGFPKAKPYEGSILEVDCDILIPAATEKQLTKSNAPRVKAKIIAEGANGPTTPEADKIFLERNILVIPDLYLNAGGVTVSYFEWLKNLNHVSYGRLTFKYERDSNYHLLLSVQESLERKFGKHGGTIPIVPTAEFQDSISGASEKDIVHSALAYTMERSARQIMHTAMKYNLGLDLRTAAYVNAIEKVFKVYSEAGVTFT
UniProt Q49A26: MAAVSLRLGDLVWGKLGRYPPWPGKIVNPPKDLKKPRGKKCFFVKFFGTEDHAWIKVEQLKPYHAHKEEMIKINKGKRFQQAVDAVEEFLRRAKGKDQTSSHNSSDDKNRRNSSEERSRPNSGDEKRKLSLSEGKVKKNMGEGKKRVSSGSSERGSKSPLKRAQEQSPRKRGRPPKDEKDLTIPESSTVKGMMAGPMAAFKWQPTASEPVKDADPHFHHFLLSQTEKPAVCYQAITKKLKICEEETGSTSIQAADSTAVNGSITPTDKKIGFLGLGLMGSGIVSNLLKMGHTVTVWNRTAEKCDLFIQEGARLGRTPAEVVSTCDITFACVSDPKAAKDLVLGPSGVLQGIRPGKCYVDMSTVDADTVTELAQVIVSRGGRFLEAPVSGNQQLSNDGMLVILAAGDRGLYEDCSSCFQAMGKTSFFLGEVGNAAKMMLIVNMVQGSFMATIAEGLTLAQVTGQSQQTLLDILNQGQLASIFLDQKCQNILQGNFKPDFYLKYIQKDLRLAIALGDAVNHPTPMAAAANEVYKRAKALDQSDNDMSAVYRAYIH
UniProt Q14691: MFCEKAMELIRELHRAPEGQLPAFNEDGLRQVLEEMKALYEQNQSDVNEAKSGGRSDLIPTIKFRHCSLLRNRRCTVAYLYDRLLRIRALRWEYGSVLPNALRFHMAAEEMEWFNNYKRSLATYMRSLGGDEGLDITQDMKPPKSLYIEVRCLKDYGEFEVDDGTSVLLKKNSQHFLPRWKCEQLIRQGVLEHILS
UniProt Q9H4A5: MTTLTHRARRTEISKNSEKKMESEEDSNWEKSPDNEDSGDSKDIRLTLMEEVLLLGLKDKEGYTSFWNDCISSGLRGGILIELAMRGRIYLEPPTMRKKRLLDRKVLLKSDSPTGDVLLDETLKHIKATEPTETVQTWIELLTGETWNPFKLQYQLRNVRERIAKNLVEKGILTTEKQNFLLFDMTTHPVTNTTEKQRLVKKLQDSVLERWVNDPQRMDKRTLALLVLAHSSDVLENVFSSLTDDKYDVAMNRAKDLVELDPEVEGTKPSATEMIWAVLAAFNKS
UniProt P36959: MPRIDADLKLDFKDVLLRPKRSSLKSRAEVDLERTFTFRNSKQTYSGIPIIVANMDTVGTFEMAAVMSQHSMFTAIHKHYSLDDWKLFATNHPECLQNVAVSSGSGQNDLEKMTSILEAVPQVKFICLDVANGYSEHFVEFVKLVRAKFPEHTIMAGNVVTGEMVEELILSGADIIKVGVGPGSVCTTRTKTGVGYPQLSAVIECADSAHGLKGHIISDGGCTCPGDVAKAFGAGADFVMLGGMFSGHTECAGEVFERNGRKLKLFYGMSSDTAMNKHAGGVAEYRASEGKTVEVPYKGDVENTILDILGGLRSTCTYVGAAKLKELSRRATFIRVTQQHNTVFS
UniProt Q9BVP2: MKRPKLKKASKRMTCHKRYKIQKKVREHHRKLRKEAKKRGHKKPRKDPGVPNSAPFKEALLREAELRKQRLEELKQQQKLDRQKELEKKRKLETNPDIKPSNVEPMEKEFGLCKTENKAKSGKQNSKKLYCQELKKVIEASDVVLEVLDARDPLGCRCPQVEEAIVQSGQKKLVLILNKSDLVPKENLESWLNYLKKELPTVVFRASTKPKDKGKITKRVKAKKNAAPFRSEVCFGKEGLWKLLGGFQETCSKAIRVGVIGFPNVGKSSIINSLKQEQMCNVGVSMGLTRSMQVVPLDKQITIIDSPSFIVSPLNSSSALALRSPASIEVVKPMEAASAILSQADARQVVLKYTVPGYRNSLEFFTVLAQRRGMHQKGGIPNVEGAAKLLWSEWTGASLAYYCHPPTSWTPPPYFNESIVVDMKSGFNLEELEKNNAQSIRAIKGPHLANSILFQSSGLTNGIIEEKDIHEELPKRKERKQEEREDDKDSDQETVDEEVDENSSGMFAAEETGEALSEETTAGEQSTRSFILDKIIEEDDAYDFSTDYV

[1] = compound: CCCS(=O)(=O)Nc1ccc(F)c(C(=O)c2c[nH]c3ncc(Cl)cc23)c1F
Outline: as §1

barasertib = compound: CCN(CCCOc1ccc2c(Nc3cc(CC(=O)Nc4cccc(F)c4)[nH]n3)ncnc2c1)CCOP(=O)(O)O [barasertib]
Outline: as §1

[2] = compound: CC[C@@H]1C(=O)N(C)c2cnc(Nc3ccc(C(=O)NC4CCN(C)CC4)cc3OC)nc2N1C1CCCC1
Outline: as §1

volasertib = compound: CC[C@@H]1C(=O)N(C)c2cnc(Nc3ccc(C(=O)N[C@H]4CC[C@H](N5CCN(CC6CC6)CC5)CC4)cc3OC)nc2N1C(C)C [volasertib]
Outline: as §1

[3] = compound: CCn1c(C(=O)N(C2CC2)C2CC2)cc2c3c(ncn3C)c(Nc3cc(C)n(C)n3)nc21
Outline: as §1

[4] = compound: CCn1cc(-c2ccnc3[nH]c(-c4cccc(CN(C)C)c4)cc23)c(-c2ccc(NC(=O)N(C)C)cc2)n1
Outline: as §1

[5] = compound: CN1CCC(CNc2ccc3ncc(-c4cccc(OC(F)(F)F)c4)n3n2)CC1
Outline: as §1

saracatinib = compound: CN1CCN(CCOc2cc(OC3CCOCC3)c3c(Nc4c(Cl)ccc5c4OCO5)ncnc3c2)CC1 [saracatinib]
Outline: as §1

sotrastaurin = compound: CN1CCN(c2nc(C3=C(c4c[nH]c5ccccc45)C(=O)NC3=O)c3ccccc3n2)CC1 [sotrastaurin]
Outline: as §1

alvocidib = compound: CN1CC[C@H](c2c(O)cc(O)c3c(=O)cc(-c4ccccc4Cl)oc23)[C@H](O)C1 [alvocidib]
Outline: as §1

Tubastatin A = compound: CN1CCc2c(c3ccccc3n2Cc2ccc(C(=O)NO)cc2)C1 [Tubastatin A]
Outline: as §1

[6] = compound: CNC(=O)C1=CC=CC=C1NC2=NC(=NC=C2Cl)NC3=C(C=C(C=C3)N4CCOCC4)OC
Outline: as §1

defactinib = compound: CNC(=O)c1ccc(Nc2ncc(C(F)(F)F)c(NCc3nccnc3N(C)S(C)(=O)=O)n2)cc1 [defactinib]
Outline: as §1

[7] = compound: CNc1nc(-c2ccc3c(N)n[nH]c3c2)cc(N2C[C@@H](C(=O)NC3CCCCC3)CC[C@H]2C)n1
Outline: as §1

encorafenib = compound: COC(=O)N[C@@H](C)CNc1nccc(-c2cn(C(C)C)nc2-c2cc(Cl)cc(NS(C)(=O)=O)c2F)n1 [encorafenib]
Outline: as §1

[8] = compound: COC(=O)[C@H](CCSC)NC(=O)C1=C(C=C(C=C1)NC[C@H](CS)N)C2=CC=CC=C2
Outline: as §1

alisertib = compound: COc1cc(Nc2ncc3c(n2)-c2ccc(Cl)cc2C(c2c(F)cccc2OC)=NC3)ccc1C(=O)O [alisertib]
Outline: as §1

[9] = compound: COc1cc2nc(-c3cc(F)ccc3O)nc(N[C@@H]3CNC[C@H]3C(C)(C)O)c2cc1OC
Outline: as §1

gefitinib = compound: COc1cc2ncnc(Nc3ccc(F)c(Cl)c3)c2cc1OCCCN1CCOCC1 [gefitinib]
Outline: as §1

Row | Target | log2 fold change (vemurafenib) | log2 fold change [1] | log2 fold change (barasertib) | log2 fold change [2] | log2 fold change (volasertib) | log2 fold change [3] | log2 fold change [4] | log2 fold change [5] | log2 fold change (saracatinib) | log2 fold change (sotrastaurin) | log2 fold change (alvocidib) | log2 fold change (Tubastatin A) | log2 fold change [6] | log2 fold change (defactinib) | log2 fold change [7] | log2 fold change (encorafenib) | log2 fold change [8] | log2 fold change (alisertib) | log2 fold change [9] | log2 fold change (gefitinib)
1 | GPAA1 (UniProt O43292) | inactive: 0.02 | inactive: 0.025 | inactive: 0.045 | inactive: 0.053 | inactive: -0.006 | inactive: -0.014 | inactive: -0.035 | inactive: -0.026 | inactive: 0.047 | inactive: 0.044 | inactive: -0.013 | inactive: 0.003 | inactive: 0.007 | inactive: -0.014 | inactive: 0.039 | inactive: -0.018 | inactive: -0.004 | inactive: 0.053 | inactive: -0.013 | inactive: 0.015
2 | GOLGA2 (UniProt Q08379) | inactive: 0.015 | inactive: -0.006 | inactive: 0.046 | inactive: 0.002 | inactive: -0.008 | inactive: 0.017 | inactive: -0.03 | inactive: -0.069 | inactive: 0.019 | inactive: -0.021 | inactive: -0.011 | inactive: -0.005 | inactive: 0.001 | inactive: 0.013 | inactive: -0.024 | inactive: -0.024 | inactive: -0.006 | inactive: 0.03 | inactive: 0.05 | inactive: -0.003
3 | GNE isoform 2 (UniProt Q9Y223) | inactive: 0.024 | inactive: 0.027 | inactive: 0.03 | inactive: -0.107 | inactive: -0.095 | inactive: 0.039 | inactive: 0.008 | inactive: -0.053 | inactive: -0.003 | inactive: -0.029 | inactive: 0.028 | inactive: -0.12 | inactive: 0.016 | inactive: -0.011 | inactive: -0.024 | inactive: -0.008 | inactive: 0.176 | inactive: 0.041 | inactive: 0.026 | inactive: -0.014
4 | GMEB1 (UniProt Q9Y692) | inactive: -0.005 | inactive: -0.01 | inactive: 0.044 | inactive: 0.03 | inactive: -0.022 | inactive: 0.025 | inactive: -0.145 | inactive: 0.029 | inactive: 0.002 | inactive: 0.001 | inactive: -0.058 | inactive: 0 | inactive: -0.005 | inactive: 0.004 | inactive: 0.008 | inactive: 0.009 | inactive: 0.01 | inactive: 0.009 | inactive: 0 | inactive: 0.032
5 | GNB2 (UniProt P62879) | inactive: 0.02 | inactive: -0.007 | inactive: 0.011 | inactive: -0.052 | inactive: 0.021 | inactive: 0.014 | inactive: -0.013 | inactive: 0.049 | inactive: -0.027 | inactive: -0.02 | inactive: -0.019 | inactive: 0.028 | inactive: -0.039 | inactive: -0.033 | inactive: -0.042 | inactive: 0.005 | inactive: -0.003 | inactive: 0.003 | inactive: 0.037 | inactive: -0.016
6 | GPR107 isoform 2 (UniProt Q5VW38) | inactive: -0.025 | inactive: 0.02 | inactive: -0.004 | inactive: 0.064 | inactive: 0.03 | inactive: -0.037 | inactive: -0.067 | inactive: 0.053 | inactive: -0.005 | inactive: 0.039 | inactive: 0.003 | inactive: -0.018 | inactive: 0.012 | inactive: 0.042 | inactive: 0.046 | inactive: 0.034 | inactive: -0.034 | inactive: -0.031 | inactive: 0.03 | inactive: 0.132
7 | GLUD2 (UniProt P49448) | inactive: 0.177 | inactive: -0.042 | inactive: -0.069 | inactive: 0.02 | inactive: -0.145 | inactive: -0.031 | inactive: -0.024 | inactive: 0.046 | inactive: 0.007 | inactive: -0.039 | inactive: -0.029 | inactive: 0.12 | inactive: 0.053 | inactive: 0.061 | inactive: 0.02 | inactive: 0.066 | inactive: 0.115 | inactive: -0.06 | inactive: -0.021 | inactive: 0.036
8 | GLYR1 (UniProt Q49A26) | inactive: -0.059 | inactive: 0.019 | inactive: 0.162 | inactive: 0.045 | inactive: -0.005 | inactive: 0.011 | inactive: -0.088 | inactive: 0.038 | inactive: 0.05 | inactive: 0.064 | inactive: 0.013 | inactive: -0.007 | inactive: -0.046 | inactive: -0.084 | inactive: -0.078 | inactive: -0.001 | inactive: 0.074 | inactive: -0.011 | inactive: -0.046 | inactive: -0.093
9 | GINS1 (UniProt Q14691) | inactive: -0.027 | inactive: 0.01 | inactive: 0.04 | inactive: 0.015 | inactive: -0.023 | inactive: -0.003 | inactive: 0.018 | inactive: 0.015 | inactive: -0.022 | inactive: -0.005 | inactive: -0.017 | inactive: -0.034 | inactive: -0.013 | inactive: -0.052 | inactive: -0.009 | inactive: -0.056 | inactive: 0.012 | inactive: 0.015 | inactive: 0.001 | inactive: -0.027
10 | GOLPH3L (UniProt Q9H4A5) | inactive: 0.068 | inactive: 0.025 | inactive: 0.033 | inactive: -0.055 | inactive: -0.023 | inactive: 0.048 | inactive: -0.034 | inactive: -0.08 | inactive: 0.046 | inactive: -0.092 | inactive: 0.018 | inactive: -0.083 | inactive: -0.005 | inactive: -0.077 | inactive: 0.008 | inactive: 0.063 | active: -0.395 | inactive: 0.026 | inactive: -0.059 | inactive: 0.018
11 | GNAS (UniProt Q5JWF2) | inactive: -0.036 | inactive: -0.003 | inactive: 0.023 | inactive: -0.034 | inactive: -0.019 | inactive: 0.051 | inactive: 0.12 | inactive: -0.077 | inactive: 0.014 | inactive: 0.012 | inactive: 0.07 | inactive: 0.008 | inactive: -0.038 | inactive: -0.025 | inactive: -0.066 | inactive: -0.025 | inactive: -0.021 | inactive: -0.015 | inactive: 0.011 | inactive: 0.006
12 | GOLGA6B (UniProt A6NDN3) | inactive: 0.015 | inactive: -0.003 | inactive: 0.2 | inactive: 0.149 | inactive: -0.006 | inactive: 0.078 | inactive: -0.086 | inactive: 0.102 | inactive: 0.101 | inactive: -0.004 | inactive: -0.019 | inactive: -0.054 | inactive: -0.002 | inactive: 0.018 | inactive: -0.086 | inactive: -0.048 | inactive: -0.053 | inactive: -0.074 | inactive: 0.043 | inactive: 0.065
13 | GMPR (UniProt P36959) | inactive: -0.013 | inactive: -0.013 | inactive: 0.034 | inactive: -0.005 | inactive: 0.033 | inactive: -0.054 | inactive: 0.088 | inactive: -0.02 | inactive: 0.003 | inactive: -0.019 | inactive: 0.07 | inactive: 0.092 | inactive: 0.005 | inactive: -0.017 | inactive: 0.084 | inactive: -0.01 | inactive: -0.004 | inactive: -0.024 | inactive: -0.014 | inactive: -0.05
14 | GNL3 (UniProt Q9BVP2) | inactive: 0.051 | inactive: 0.041 | inactive: 0.032 | inactive: -0.078 | inactive: 0.004 | inactive: -0.07 | inactive: 0.129 | inactive: -0.066 | inactive: 0.004 | inactive: 0.013 | inactive: 0.023 | inactive: 0.008 | inactive: 0.055 | inactive: -0.002 | inactive: 0.038 | inactive: 0.014 | active: 0.252 | inactive: -0.006 | inactive: 0.033 | inactive: -0.029
15 | GORASP2 isoform 3 (UniProt Q9H8Y8) | inactive: 0.023 | inactive: 0.025 | inactive: 0.076 | inactive: 0.021 | inactive: -0.03 | inactive: 0.01 | inactive: -0.198 | inactive: 0.129 | inactive: 0.031 | inactive: -0.019 | inactive: -0.027 | inactive: -0.029 | inactive: -0.016 | inactive: -0.029 | inactive: -0.008 | inactive: 0.032 | inactive: 0.062 | inactive: 0.011 | inactive: -0.024 | inactive: 0.006

Part of the list above, showing only log2 fold change [2], log2 fold change [3] and log2 fold change (alvocidib):
Row | Target | log2 fold change [2] | log2 fold change [3] | log2 fold change (alvocidib)
7 | GLUD2 (UniProt P49448) | inactive: 0.02 | inactive: -0.031 | inactive: -0.029
8 | GLYR1 (UniProt Q49A26) | inactive: 0.045 | inactive: 0.011 | inactive: 0.013

From the supplement of paper PMC10849652
